Reference: article PMC5113665 (Angewandte Chemie (International Ed. in English), 2016)

B1: CHK2(73‐538)S73C: expressed, unligated truncated CHK2 protein with N-terminal cysteine (protein)
chain: CIPEDQEPEDQEPEEPTPAPWARLWALQDGFANLECVNDNYWFGRDKSCEYCFDEPLLKRTDKYRTYSKKHFRIFREVGPKNSYIAYIEDHSGNGTFVNTELVGKGKRRPLNNNSEIALSLSRNKVFVFFDLTVDDQSVYPKALRDEYIMSKTLGSGACGEVKLAFERKTCKKVAIKIISKRKFAIGSAREADPALNVETEIEILKKLNHPCIIKIKNFFDAEDYYIVLELMEGGELFDKVVGNKRLKEATCKLYFYQMLLAVQYLHENGIIHRDLKPENVLLSSQEEDCLIKITDFGHSKILGETSLMRTLCGTPTYLAPEVLVSVGTAGYNRAVDCWSLGVILFICLSGYPPFSEHRTQVSLKDQITSGKYNFIPEVWAEVSEKALDLVKKLLVVDPKARFTTEEALRHPWLQDEDMKRKFQDLLSEENESTALPQVLAQPSTSRKRPREGEAEGAETTKRPAV
B2: pT68CHK2: ligation product, residues 63–538 with a phosphorylated Thr‐68 and a Ser‐73 to Cys mutation (protein)
chain: LETVSTQELYCIPEDQEPEDQEPEEPTPAPWARLWALQDGFANLECVNDNYWFGRDKSCEYCFDEPLLKRTDKYRTYSKKHFRIFREVGPKNSYIAYIEDHSGNGTFVNTELVGKGKRRPLNNNSEIALSLSRNKVFVFFDLTVDDQSVYPKALRDEYIMSKTLGSGACGEVKLAFERKTCKKVAIKIISKRKFAIGSAREADPALNVETEIEILKKLNHPCIIKIKNFFDAEDYYIVLELMEGGELFDKVVGNKRLKEATCKLYFYQMLLAVQYLHENGIIHRDLKPENVLLSSQEEDCLIKITDFGHSKILGETSLMRTLCGTPTYLAPEVLVSVGTAGYNRAVDCWSLGVILFICLSGYPPFSEHRTQVSLKDQITSGKYNFIPEVWAEVSEKALDLVKKLLVVDPKARFTTEEALRHPWLQDEDMKRKFQDLLSEENESTALPQVLAQPSTSRKRPREGEAEGAETTKRPAV
modifications: phosphorylated Thr-68 (pT in LETVSpTQELY)
notes: ligation product, residues 63–538 with a phosphorylated Thr‐68 and a Ser‐73 to Cys mutation

Tested on: CHK2
Experiment: Gel-filtration profile (dimerization) of CHK2 proteins
Set-up: species or system human
Settings: Superdex S200 10/300 GL, 20 mM Tris-HCl, 150 mM NaCl, 0.5 mM TCEP

| Molecule | dimerization (pH 8.0, 0.5 mL min-1) | dimerization (pH 8.0, 0.5 mL min-1, listed as Phosphorylated CHK2 protein) |
| --- | --- | --- |
| B1 | small amount of dimerization | – |
| B2 | dimerization | dimerized |
